One experiment deals with T1, αDB1-GFP (UniProt Q9D2N4).
T1 sequence: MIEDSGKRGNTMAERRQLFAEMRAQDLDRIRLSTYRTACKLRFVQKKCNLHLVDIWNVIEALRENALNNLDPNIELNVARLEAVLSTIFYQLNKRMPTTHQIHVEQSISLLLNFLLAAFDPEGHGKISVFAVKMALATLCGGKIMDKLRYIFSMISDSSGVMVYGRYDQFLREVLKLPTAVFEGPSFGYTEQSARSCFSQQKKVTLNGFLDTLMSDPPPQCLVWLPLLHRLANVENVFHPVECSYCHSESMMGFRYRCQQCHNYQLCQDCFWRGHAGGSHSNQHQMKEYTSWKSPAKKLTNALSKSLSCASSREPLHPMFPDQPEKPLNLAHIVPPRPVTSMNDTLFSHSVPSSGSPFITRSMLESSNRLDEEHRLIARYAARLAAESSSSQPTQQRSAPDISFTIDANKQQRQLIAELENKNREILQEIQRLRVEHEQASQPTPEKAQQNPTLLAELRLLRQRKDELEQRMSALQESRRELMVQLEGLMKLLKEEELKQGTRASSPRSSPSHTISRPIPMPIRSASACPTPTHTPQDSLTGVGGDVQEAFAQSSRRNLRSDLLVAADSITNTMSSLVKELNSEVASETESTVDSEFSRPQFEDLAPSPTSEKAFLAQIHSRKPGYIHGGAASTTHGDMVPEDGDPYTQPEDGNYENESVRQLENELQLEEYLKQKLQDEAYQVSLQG
Briefly: co-IP.

By UniProt entry, the sequences of proteins in these tests, tags left out.
UniProt Q60598: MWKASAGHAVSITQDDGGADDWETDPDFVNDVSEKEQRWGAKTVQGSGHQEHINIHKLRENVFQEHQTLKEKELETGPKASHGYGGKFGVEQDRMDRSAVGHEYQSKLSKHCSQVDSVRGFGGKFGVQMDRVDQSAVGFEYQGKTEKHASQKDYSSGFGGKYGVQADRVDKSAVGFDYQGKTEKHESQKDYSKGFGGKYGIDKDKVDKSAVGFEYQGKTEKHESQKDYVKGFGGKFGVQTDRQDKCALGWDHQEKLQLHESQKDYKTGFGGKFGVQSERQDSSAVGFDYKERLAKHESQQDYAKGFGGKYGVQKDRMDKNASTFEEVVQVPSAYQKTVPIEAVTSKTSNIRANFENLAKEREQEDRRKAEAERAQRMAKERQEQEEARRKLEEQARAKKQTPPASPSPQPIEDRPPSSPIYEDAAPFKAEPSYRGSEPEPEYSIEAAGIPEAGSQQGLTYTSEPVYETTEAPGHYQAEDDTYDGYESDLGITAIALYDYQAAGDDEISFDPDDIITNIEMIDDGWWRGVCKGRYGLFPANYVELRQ

The next experiment addresses T2, αDB1-VN173 (UniProt Q9D2N4).
T2 sequence: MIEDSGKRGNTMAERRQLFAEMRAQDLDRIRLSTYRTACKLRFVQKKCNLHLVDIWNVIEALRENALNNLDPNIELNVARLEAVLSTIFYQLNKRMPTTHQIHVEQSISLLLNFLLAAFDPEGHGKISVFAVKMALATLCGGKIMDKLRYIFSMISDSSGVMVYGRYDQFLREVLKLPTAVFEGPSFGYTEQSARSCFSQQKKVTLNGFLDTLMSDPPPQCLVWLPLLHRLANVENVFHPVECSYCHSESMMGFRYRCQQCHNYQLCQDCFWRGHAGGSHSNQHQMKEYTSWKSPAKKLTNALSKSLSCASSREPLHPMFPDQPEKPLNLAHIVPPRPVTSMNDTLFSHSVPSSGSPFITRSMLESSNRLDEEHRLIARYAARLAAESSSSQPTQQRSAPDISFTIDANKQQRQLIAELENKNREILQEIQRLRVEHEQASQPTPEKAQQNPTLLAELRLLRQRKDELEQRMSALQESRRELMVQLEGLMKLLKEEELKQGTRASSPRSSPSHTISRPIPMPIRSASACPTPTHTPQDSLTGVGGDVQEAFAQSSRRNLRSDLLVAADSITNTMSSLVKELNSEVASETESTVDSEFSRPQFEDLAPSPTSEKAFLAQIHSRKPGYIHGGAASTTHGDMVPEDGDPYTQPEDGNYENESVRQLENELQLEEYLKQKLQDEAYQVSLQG
Briefly: split reporter.

A further experiment has as its target Cttn-Flag (UniProt Q60598). The experiment in a line: co-IP.

These are yes or no findings as the source states them, for the method shown. In cells and extracts the contact can be indirect. Some entries that bind do so weakly or less than the wild type. For part of these data: Sequences can lack the tags named with a protein.

Consider Cttn-Flag (from UniProt Q60598 1-546), for which the binding entry with αDB1-GFP is “binds”. For the molecule Cttn-VC155 (from UniProt Q60598 1-546), the binding entry with αDB1-VN173 was “binds”.

B1: αDB1-GFP (protein, UniProt Q9D2N4-2 1-688)
chain: MIEDSGKRGNTMAERRQLFAEMRAQDLDRIRLSTYRTACKLRFVQKKCNLHLVDIWNVIEALRENALNNLDPNIELNVARLEAVLSTIFYQLNKRMPTTHQIHVEQSISLLLNFLLAAFDPEGHGKISVFAVKMALATLCGGKIMDKLRYIFSMISDSSGVMVYGRYDQFLREVLKLPTAVFEGPSFGYTEQSARSCFSQQKKVTLNGFLDTLMSDPPPQCLVWLPLLHRLANVENVFHPVECSYCHSESMMGFRYRCQQCHNYQLCQDCFWRGHAGGSHSNQHQMKEYTSWKSPAKKLTNALSKSLSCASSREPLHPMFPDQPEKPLNLAHIVPPRPVTSMNDTLFSHSVPSSGSPFITRSMLESSNRLDEEHRLIARYAARLAAESSSSQPTQQRSAPDISFTIDANKQQRQLIAELENKNREILQEIQRLRVEHEQASQPTPEKAQQNPTLLAELRLLRQRKDELEQRMSALQESRRELMVQLEGLMKLLKEEELKQGTRASSPRSSPSHTISRPIPMPIRSASACPTPTHTPQDSLTGVGGDVQEAFAQSSRRNLRSDLLVAADSITNTMSSLVKELNSEVASETESTVDSEFSRPQFEDLAPSPTSEKAFLAQIHSRKPGYIHGGAASTTHGDMVPEDGDPYTQPEDGNYENESVRQLENELQLEEYLKQKLQDEAYQVSLQG
In the case of B1, the binding result with Cttn-Flag is recorded as “binds”.

For the origin of these results see publication doi:10.1101/2023.10.13.562179.
